The list shows a part of the results. Small differences around the control level are noise.
Each target was assayed with CN[C@@H]1C[C@H]2O[C@@](C)([C@@H]1OC)n1c3ccccc3c3c4c(c5c6ccccc6n2c5c31)C(=O)NC4 [staurosporine] (assay: log2 fold change of pooled soluble protein (PISA), ligand vs vehicle (log2 ratio); higher = more thermally stabilized). Conditions: ligand concentration: 20 uM; assay format: PISA pool 52.9/55.5/58.6 C.

Protein sequences, listed by entry. Tags and fused reporters are not part of them. Lines headed by an entry give the natural chain unless they say otherwise; changes in a name come on top.
UniProt P35951: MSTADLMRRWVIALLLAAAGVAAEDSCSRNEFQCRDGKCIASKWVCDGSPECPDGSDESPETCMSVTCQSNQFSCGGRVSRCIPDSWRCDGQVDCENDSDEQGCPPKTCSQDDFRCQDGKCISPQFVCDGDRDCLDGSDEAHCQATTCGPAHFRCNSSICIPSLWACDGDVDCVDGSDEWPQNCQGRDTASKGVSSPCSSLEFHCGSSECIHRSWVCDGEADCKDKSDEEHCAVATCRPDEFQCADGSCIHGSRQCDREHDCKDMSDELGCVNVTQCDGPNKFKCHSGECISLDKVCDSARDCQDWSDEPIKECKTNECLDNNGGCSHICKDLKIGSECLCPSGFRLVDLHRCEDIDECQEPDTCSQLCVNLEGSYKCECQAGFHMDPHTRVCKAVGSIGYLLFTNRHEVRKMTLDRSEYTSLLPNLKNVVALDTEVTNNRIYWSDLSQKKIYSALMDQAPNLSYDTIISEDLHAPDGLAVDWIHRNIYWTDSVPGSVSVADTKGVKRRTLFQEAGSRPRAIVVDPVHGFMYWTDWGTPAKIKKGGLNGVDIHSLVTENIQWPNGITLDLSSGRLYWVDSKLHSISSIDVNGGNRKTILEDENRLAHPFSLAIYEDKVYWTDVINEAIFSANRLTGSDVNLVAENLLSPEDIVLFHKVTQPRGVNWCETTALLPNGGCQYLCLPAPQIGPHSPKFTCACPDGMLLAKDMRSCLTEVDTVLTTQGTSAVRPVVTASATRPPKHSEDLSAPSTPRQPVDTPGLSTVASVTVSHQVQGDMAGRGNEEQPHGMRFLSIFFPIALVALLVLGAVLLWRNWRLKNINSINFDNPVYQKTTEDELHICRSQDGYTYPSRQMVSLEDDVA
UniProt P28651: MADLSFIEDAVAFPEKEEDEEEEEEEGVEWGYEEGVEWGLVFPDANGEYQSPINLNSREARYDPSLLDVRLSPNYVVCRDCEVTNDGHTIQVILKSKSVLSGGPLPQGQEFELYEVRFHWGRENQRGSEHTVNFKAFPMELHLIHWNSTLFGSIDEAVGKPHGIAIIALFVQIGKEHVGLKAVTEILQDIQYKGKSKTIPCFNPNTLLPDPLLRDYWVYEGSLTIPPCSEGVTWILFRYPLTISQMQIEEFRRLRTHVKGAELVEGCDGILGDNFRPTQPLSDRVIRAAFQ
UniProt P52623: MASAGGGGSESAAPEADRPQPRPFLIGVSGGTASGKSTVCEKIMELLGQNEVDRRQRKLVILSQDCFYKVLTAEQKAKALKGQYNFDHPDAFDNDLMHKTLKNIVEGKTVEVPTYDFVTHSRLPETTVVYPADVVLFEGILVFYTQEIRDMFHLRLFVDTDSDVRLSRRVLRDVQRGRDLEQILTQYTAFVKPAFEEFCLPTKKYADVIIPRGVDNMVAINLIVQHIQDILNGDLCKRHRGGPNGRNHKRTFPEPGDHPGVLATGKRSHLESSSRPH
UniProt P42227, whole entry: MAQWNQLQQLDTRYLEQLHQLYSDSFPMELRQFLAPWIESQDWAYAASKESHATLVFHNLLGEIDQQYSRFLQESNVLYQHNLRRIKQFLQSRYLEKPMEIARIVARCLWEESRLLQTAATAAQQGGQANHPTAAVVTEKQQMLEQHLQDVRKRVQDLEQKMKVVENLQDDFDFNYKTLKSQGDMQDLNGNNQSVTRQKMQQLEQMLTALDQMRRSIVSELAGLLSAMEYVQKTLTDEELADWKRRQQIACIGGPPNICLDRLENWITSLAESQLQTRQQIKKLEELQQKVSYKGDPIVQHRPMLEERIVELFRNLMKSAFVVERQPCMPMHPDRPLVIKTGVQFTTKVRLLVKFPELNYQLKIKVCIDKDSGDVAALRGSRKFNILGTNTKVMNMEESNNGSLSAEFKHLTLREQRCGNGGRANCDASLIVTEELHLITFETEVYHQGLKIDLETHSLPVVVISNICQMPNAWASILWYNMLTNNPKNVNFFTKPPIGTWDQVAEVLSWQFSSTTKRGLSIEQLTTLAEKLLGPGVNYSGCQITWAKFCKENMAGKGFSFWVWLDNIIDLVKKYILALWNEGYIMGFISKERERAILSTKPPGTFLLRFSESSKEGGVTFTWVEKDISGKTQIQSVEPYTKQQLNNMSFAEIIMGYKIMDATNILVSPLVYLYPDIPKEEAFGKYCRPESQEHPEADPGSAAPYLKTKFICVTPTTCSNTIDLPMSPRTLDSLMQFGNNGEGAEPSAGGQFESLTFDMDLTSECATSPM
UniProt P55050: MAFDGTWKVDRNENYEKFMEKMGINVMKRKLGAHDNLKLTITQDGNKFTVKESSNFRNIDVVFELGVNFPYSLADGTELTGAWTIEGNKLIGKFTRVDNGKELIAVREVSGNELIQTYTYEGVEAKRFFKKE
UniProt P35917, whole entry: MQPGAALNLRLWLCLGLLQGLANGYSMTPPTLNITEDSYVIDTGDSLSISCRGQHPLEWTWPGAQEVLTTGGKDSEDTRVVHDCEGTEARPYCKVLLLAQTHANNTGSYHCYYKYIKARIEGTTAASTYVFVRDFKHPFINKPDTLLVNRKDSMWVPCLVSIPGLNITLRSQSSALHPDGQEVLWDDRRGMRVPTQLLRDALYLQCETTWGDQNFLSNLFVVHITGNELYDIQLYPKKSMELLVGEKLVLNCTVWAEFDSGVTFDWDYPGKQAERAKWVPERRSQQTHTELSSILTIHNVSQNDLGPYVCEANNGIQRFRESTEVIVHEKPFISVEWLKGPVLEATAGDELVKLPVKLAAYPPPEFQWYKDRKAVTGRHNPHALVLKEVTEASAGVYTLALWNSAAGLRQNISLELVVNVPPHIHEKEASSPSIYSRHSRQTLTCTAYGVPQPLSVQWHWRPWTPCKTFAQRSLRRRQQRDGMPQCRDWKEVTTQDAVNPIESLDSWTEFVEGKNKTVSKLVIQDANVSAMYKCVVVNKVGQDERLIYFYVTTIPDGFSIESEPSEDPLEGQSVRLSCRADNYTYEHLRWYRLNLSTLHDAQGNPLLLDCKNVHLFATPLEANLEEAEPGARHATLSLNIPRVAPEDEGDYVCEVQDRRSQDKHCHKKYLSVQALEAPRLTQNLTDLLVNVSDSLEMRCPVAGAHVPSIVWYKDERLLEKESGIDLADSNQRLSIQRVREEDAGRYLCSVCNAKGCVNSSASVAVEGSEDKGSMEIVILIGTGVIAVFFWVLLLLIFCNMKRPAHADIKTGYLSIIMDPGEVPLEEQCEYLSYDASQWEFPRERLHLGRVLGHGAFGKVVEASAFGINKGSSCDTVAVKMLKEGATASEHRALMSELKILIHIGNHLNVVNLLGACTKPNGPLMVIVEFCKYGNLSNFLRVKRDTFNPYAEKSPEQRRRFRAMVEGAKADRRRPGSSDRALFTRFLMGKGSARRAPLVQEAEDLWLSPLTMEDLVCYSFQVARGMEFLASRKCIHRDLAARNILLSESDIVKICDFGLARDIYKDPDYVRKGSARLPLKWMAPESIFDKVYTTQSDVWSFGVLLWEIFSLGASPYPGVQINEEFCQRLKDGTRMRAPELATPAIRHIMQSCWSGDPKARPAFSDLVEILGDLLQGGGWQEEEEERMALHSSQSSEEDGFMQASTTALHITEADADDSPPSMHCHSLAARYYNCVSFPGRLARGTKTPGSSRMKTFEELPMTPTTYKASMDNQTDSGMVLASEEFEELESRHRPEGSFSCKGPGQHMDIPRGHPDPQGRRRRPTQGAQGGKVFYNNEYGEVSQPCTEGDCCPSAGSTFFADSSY
UniProt P47879: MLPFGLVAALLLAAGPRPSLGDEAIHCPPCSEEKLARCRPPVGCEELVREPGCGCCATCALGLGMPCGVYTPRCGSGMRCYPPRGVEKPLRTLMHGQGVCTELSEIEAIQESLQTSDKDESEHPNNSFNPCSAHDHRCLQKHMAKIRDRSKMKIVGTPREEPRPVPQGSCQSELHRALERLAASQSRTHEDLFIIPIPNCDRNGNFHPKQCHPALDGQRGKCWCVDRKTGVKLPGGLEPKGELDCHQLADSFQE
UniProt P50518, whole entry: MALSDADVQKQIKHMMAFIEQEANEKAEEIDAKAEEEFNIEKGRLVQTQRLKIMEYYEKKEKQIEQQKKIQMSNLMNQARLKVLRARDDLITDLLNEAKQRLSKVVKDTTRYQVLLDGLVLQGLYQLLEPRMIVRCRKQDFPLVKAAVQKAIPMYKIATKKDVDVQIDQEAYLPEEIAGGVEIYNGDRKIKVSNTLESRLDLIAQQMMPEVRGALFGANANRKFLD
UniProt P48377: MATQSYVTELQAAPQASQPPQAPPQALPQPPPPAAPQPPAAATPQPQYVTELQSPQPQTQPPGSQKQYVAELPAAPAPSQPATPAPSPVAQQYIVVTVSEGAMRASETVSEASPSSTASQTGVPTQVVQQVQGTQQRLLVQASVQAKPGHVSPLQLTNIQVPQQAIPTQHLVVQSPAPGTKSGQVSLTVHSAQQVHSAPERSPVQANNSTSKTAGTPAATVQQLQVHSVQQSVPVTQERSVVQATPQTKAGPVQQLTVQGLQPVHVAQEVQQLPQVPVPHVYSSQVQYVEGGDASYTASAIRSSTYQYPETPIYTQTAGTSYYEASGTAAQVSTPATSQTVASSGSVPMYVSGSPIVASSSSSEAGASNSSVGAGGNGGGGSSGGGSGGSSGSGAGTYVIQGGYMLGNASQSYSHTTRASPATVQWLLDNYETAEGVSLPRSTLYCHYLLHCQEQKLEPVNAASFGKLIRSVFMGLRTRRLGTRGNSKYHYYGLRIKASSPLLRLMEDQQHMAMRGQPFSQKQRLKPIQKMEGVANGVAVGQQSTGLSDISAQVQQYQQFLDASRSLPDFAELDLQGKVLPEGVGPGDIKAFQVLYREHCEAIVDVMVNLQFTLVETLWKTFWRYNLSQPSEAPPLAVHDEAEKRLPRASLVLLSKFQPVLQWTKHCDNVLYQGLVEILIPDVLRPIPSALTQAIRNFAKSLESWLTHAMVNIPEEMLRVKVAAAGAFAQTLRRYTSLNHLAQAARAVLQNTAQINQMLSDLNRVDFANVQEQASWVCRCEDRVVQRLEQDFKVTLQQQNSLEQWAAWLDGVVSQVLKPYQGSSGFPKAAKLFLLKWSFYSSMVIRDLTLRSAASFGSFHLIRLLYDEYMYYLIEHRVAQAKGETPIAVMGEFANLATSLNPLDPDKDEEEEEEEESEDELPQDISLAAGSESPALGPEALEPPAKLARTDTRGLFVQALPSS
UniProt P53996: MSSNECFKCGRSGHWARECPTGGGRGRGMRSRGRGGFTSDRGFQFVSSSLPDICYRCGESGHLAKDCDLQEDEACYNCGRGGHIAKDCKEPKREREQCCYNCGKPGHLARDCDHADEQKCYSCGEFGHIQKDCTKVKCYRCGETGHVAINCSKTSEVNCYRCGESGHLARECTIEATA
UniProt P50171: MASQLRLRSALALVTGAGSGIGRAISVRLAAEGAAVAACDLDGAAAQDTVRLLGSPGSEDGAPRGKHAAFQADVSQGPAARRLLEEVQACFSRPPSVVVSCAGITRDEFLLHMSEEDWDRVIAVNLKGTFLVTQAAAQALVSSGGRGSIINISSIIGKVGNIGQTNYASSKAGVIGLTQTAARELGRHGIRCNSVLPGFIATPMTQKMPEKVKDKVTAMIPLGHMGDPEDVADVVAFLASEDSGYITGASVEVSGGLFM
UniProt P28667: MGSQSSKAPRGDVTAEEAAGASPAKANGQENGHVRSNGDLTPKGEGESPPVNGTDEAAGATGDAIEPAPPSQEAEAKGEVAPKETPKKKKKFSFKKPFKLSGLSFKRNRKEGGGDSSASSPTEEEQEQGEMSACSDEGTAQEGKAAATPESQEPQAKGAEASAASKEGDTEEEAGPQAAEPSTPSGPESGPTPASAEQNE
UniProt P47941: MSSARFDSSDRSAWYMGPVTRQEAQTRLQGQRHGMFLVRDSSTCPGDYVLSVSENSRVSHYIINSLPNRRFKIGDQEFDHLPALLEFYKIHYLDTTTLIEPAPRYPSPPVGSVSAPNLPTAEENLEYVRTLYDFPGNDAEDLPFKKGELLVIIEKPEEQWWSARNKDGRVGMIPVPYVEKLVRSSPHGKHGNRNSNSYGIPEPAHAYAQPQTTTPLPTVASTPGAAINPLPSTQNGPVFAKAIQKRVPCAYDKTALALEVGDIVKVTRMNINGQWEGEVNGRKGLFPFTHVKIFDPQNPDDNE
UniProt P47738: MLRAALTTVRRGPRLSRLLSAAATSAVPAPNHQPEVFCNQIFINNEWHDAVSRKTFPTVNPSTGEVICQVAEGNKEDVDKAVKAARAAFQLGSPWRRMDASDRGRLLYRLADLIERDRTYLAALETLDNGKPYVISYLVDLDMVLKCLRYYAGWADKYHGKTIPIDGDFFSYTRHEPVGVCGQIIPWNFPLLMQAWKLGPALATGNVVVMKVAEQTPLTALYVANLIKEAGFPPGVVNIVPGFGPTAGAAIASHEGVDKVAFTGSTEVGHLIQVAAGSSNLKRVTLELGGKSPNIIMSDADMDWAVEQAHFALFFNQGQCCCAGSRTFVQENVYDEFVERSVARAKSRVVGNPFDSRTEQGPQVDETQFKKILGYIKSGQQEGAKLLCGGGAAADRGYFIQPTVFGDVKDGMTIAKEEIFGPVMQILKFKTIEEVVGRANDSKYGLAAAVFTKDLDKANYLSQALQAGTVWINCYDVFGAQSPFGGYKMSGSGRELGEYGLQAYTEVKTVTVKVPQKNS

Target | log2 fold change of pooled soluble protein
UniProt P52792 | 0.00895
UniProt P35951 | -0.0106
UniProt P28651 | 0.146
UniProt P47757 | 0.0255
UniProt P53798 | -0.0385
UniProt P52623 | 0.0547
UniProt P29416 | -0.125
UniProt P42227 | 0.0486
UniProt P47199 | -0.0667
UniProt P49182 | -0.0926
UniProt P35293 | -0.121
UniProt P47962 | -0.341
UniProt P48774 | 0.155
UniProt P42703 | 0.0707
UniProt P52795 | -0.167
UniProt P55050 | -0.11
UniProt P35917 | -0.223
UniProt P29351 | -0.211
UniProt P33215 | 0.364

2 records drawn at random from those above, as already listed:
Target | log2 fold change of pooled soluble protein
UniProt P29416 | -0.125
UniProt P52623 | 0.0547

Additional entries.

Target | log2 fold change of pooled soluble protein
UniProt P41105 | -0.0104
UniProt P55012 | -0.251
UniProt P50446 | -0.617
UniProt P47879 | 0.0224
UniProt P50518 | -0.124
UniProt P52196 | -0.0504
UniProt P48377 | -0.0432
UniProt P42932 | -0.0631
UniProt P53996 | -0.0289
UniProt P52825 | -0.122
UniProt P32883 | 0.103
UniProt P50171 | -0.0252
UniProt P28667 | 0.159
UniProt P47941 | 0.0341
UniProt P56480 | -0.095
UniProt P52430 | 0.0975
UniProt P47738 | -0.00431
UniProt P54227 | -0.0493
